This experiment addresses keyhole limpet hemocyanin, protein carrier. In words: ELISA with exchanged laydown conjugates (KLH exchanged for BSA). For orientation: In an ELISA, binding on a coated surface is turned into a signal by an enzyme label.

These are yes or no findings as the source states them, for the method shown.

B1: murine anti-S1P monoclonal antibody (Sphingomab, hybridoma clone 306D326.26, ATCC SD-5362) (antibody, mouse IgG1, V domains shown)
VH: QAHLQQSDAELVKPGASVKISCKVSGFIFIDHTIHWMKQRPEQGLEWIGCISPRHDITKYNEMFRGKATLTADKSSTTAYIQVNSLTFEDSAVYFCARGGFYGSTIWFDFWGQGTTLTVS
VL: ETTVTQSPASLSMAIGEKVTIRCITTTDIDDDMNWFQQKPGEPPNLLISEGNILRPGVPSRFSSSGYGTDFLFTIENMLSEDVADYYCLQSDNLPFTFGSGTKLEIK
As to B1, the binding result is reported as “no binding”.

The values above are taken from patent US20080145360A1.
